Assay results as given in PubChem BioAssay AID445 (National Center for Advancing Translational Sciences (NCATS), 2006).
The other results are listed elsewhere or left out. Further columns of the screen follow, without active or inactive calls. The list favours compounds with an active or inconclusive main result. Potencies come from curve fits of mixed quality, noted in brackets.

Experiment: IkB Signaling
Conditions: ABC-DLBCL IkBa-CBG/CBR dual luciferase ratio (green luciferase fused to IkBa over red control in OCI-Ly3 lymphoma cells), 4 h
How it was run: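 In this assay, an IκBα–CBG68 fusion accumulates when IKK-driven degradation is blocked; native CBR normalizes for cell number. OCI-Ly3 cells were treated 4 h with compound and doxycycline, then green and red light read after Chroma-Glo addition.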

[1] = measured here: control luc red channel unless noted

SMILES: Cc1cc2nc(-c3cccnc3SCC(=O)NCc3ccco3)[nH]c2cc1C
- AC50 [1]: 15.8 µM [falling, partial curve]

SMILES: O=C(COC(=O)c1ccccc1NC(=O)c1ccco1)Nc1ccc2c(c1)OCO2
- AC50 [1]: 20 µM [falling, partial curve]

SMILES: CCn1cc(C(=O)NCCc2ccc(OC)c(OC)c2)c(=O)c2cc(S(=O)(=O)N3CCCCCC3)ccc21
- AC50 [1]: 1.58 µM [rising, partial curve]

SMILES: COc1ccccc1NC(=O)c1oc2ccccc2c1NC(=O)COc1cccc(C)c1
- AC50 [1]: 5.01 µM [rising, partial curve]

SMILES: Cc1ccc2oc(-c3ccc(C)c(NC(=O)C(C)(C)Oc4ccc(Cl)cc4)c3)nc2c1
- AC50 [1]: 0.794 µM [falling, partial curve]

SMILES: CCOc1ccc(NC(=O)CSc2oc(-c3ccc(F)cc3)nc2S(=O)(=O)c2ccc(C)cc2)cc1
- AC50 [1]: 12.6 µM [falling, partial curve]

SMILES: Clc1ccccc1-c1nnc(COc2ccccc2)o1
- AC50 [1]: 0.02 µM [rising, full curve]

SMILES: Cc1nc2nc(NC(=O)c3ccc(C(C)(C)C)cc3)[nH]n2c(=O)c1Cc1ccccc1
- AC50 [1]: 39.8 µM [falling, single point]

SMILES: CCOC(=O)c1ccc(NC(=O)CSc2nc3cc4ccccc4cc3[nH]2)cc1
- AC50 [1]: 5.01 µM [falling, full curve]

SMILES: O=C(Nc1ccc(Br)cc1F)c1cc(S(=O)(=O)NC2CCCCC2)ccc1F
- AC50 [1]: 0.2 µM [falling, full curve, poor fit]

SMILES: CCCn1nc(NC(=O)c2ccncc2)c2cc3ccccc3nc21
- AC50 [1]: 12.6 µM [falling, partial curve]

SMILES: CCOc1ccccc1-n1c(SCC(=O)N(C(C)C)C(C)C)nnc1-c1cccnc1
- AC50 [1]: 15.8 µM [falling, partial curve]

SMILES: COc1ccc(CNC(=O)Cn2ccc3cc(S(=O)(=O)N4CCCCC4)ccc32)cc1OC
- AC50 [1]: 0.02 µM [falling, full curve, poor fit]

SMILES: O=C(CCSCc1cccc(Cl)c1)N1CCN(c2ccc(Cl)cc2)CC1
- AC50 [1]: 15.8 µM [falling, partial curve]

SMILES: N#Cc1cccc(-c2nc(NCCN3CCOCC3)c3ccccc3n2)c1
- AC50 [1]: 7.94 µM [falling, single point] [measured here: IkB-luc green channel]

SMILES: Cc1ccccc1C(=O)N1CC(=O)Nc2ccc(Cl)cc2C1c1ccccc1 (stereo unspecified)
- AC50 [1]: 25.1 µM [falling, partial curve]

SMILES: CCOc1ccc(NS(=O)(=O)c2ccc(C(=O)N(C)C)s2)cc1
- AC50 [1]: 0.0158 µM [falling, full curve, poor fit]

SMILES: O=C(c1cccc(Cl)c1)N1c2nc(-c3ccco3)nn2C2(CCCCC2)[C@@H]2CCCC[C@@H]21
- AC50 [1]: 31.6 µM [falling, single point]

SMILES: C#CCn1c(=NC(=O)c2ccc3c(c2)OCCO3)sc2cc(OC)c(OC)cc21
- AC50 [1]: 0.398 µM [falling, full curve, poor fit]

SMILES: COc1ccc(NC(=O)CSc2nnc(CNC(=O)c3ccco3)n2-c2ccccc2OC)cc1
- AC50 [1]: 2 µM [falling, full curve, poor fit]

SMILES: Cc1nn(-c2ccc(N3CCCCC3)nn2)c(C)c1CCC(=O)Nc1ccc(F)cc1F
- AC50 [1]: 12.6 µM [falling, partial curve]

SMILES: COc1cccc(-c2cc(C(=O)N3CCc4ccccc4C3)no2)c1
- AC50 [1]: 20 µM [falling, single point]

SMILES: Cc1nc2ccc(S(=O)(=O)CCC(=O)Nc3ccc(Cl)cc3)cc2s1
- AC50 [1]: 12.6 µM [falling, partial curve]

SMILES: COC(=O)c1cc(-c2ccc3c(c2)OCO3)nc2ccccc12
- AC50 [1]: 20 µM [falling, partial curve]

SMILES: COc1ccc(S(=O)(=O)N2CCN(Cc3ccc(Cl)cc3)CC2)cc1
- AC50 [1]: 25.1 µM [falling, partial curve]

SMILES: CCC(Sc1nc2ccccc2s1)C(=O)Nc1nnc(C)s1 (stereo unspecified)
- AC50 [1]: 20 µM [falling, partial curve]

SMILES: O=C(Nc1ccc2c(c1)OCO2)c1nn(-c2ccccc2)c(=O)c2ccccc12
- AC50 [1]: 25.1 µM [falling, partial curve]

SMILES: CC1(C)N=C(SCc2ccccc2Cl)c2ccccc2N1
- AC50 [1]: 39.8 µM [falling, single point]

SMILES: Cc1cccc(-c2noc(-c3cccnc3NCc3ccc(Cl)cc3)n2)c1
- AC50 [1]: 3.98 µM [falling, full curve]

SMILES: COc1ccc2c(c1)sc1ncc(C(=O)NCc3ccccc3F)c(=O)n12
- AC50 [1]: 5.01 µM [rising, partial curve]

SMILES: COc1ccc(S(=O)(=O)Nc2ccc3oc4c(c3c2)CCCC4)cc1
- AC50 [1]: 39.8 µM [falling, single point]

SMILES: Cc1cc(Cl)ccc1OCC(=O)Nc1ccccc1N1CCOCC1
- AC50 [1]: 12.6 µM [falling, partial curve]

SMILES: CCOc1ccccc1CNC(=O)c1ccc2c(c1)N(Cc1ccc(C)cc1)CCS2
- AC50 [1]: 0.158 µM [falling, full curve]

SMILES: CC(=O)c1cccc(NC(=O)CSc2nc(=O)n(Cc3ccco3)c3c2CCC3)c1
- AC50 [1]: 25.1 µM [falling, partial curve]

SMILES: Cc1oc(-c2cccc(Cl)c2)nc1CS(=O)(=O)CC(=O)NC(C)CCc1ccccc1 (stereo unspecified)
- AC50 [1]: 20 µM [falling, partial curve]

SMILES: Cc1ccc(NC(=O)C2CCCN(C(=O)c3cnn(-c4ccc(F)cc4)c3-n3cccc3)C2)c(Cl)c1 (stereo unspecified)
- AC50 [1]: 15.8 µM [falling, partial curve]

SMILES: O=C(NCCc1ccccc1Cl)C1CCN(c2nc3ccccc3nc2C(F)(F)F)CC1
- AC50 [1]: 6.31 µM [rising, partial curve, poor fit]

SMILES: O=C(c1cccc(C(=O)N2CCN(c3ccccc3F)CC2)c1)N1CCN(c2ccccc2F)CC1
- AC50 [1]: 3.16 µM [falling, full curve]

SMILES: CCOc1ccc(/C=C/c2nc(C#N)c(NCc3ccccc3)o2)cc1
- AC50 [1]: 1 µM [rising, full curve]

SMILES: O=C(CCC1N=C2c3ccccc3N=C(SCc3ccc(F)cc3)N2C1=O)NCCc1ccccc1 (stereo unspecified)
- AC50 [1]: 3.16 µM [falling, partial curve]

SMILES: CCOc1ccc(NC(=O)c2c(NCc3cccc(OC)c3OC)sc3c2CCC3)cc1
- AC50 [1]: 20 µM [falling, single point]

SMILES: CCc1ccc(NC(=O)CN(c2ccc(Cl)cc2)S(=O)(=O)c2ccsc2C(=O)OC)cc1
- AC50 [1]: 25.1 µM [falling, partial curve]

SMILES: Nc1c(C(=O)Nc2ccccc2Cl)c2ccccn2c1C(=O)c1ccccc1
- AC50 [1]: 0.2 µM [falling, full curve, poor fit]

SMILES: Cc1ccc(C)c(CN2C(=O)C(O)(c3c(C)[nH]c4ccccc34)c3ccccc32)c1 (stereo unspecified)
- AC50 [1]: 25.1 µM [falling, single point]

SMILES: O=C(C1CCCN(S(=O)(=O)c2cccc3nsnc23)C1)N1CCN(c2ccccc2)CC1 (stereo unspecified)
- AC50 [1]: 15.8 µM [falling, partial curve]

SMILES: O=C1NCN(c2ccccc2)C12CCN(CCCC(c1ccc(F)cc1)c1ccc(F)cc1)CC2
- AC50 (measured here: IkB-luc green channel): 31.6 µM [falling, partial curve, poor fit]
- AC50 (measured here: control luc red channel): 31.6 µM [falling, partial curve]

SMILES: CCOC(=O)N1CCN(C(=O)CN(c2ccccc2F)S(=O)(=O)c2ccc(C)cc2)CC1
- AC50 [1]: 20 µM [falling, partial curve]

SMILES: O=C(NCc1cccs1)c1ccc2c(c1)N(Cc1cccc(F)c1)C(=O)c1ccccc1S2
- AC50 [1]: 31.6 µM [falling, partial curve]

SMILES: CCOC(=O)c1c(C)[nH]c(C)c1S(=O)(=O)NCC(=O)NCc1cccc(Br)c1
- AC50 [1]: 39.8 µM [falling, partial curve, poor fit]

SMILES: Cc1ccccc1Cn1nc(C)c(NC(=O)c2cc3nc(-c4ccco4)cc(C(F)(F)F)n3n2)c1C
- AC50 [1]: 25.1 µM [falling, partial curve]

SMILES: O=C(Nc1ccc(Oc2ccccc2)cc1)c1ccc(F)c(S(=O)(=O)N2CCN(c3ccccc3F)CC2)c1
- AC50 [1]: 7.94 µM [falling, partial curve]

SMILES: COc1cccc(NC(=O)/C(C#N)=C/c2ccc(-c3ccc(C)cc3)o2)c1
- AC50 [1]: 10 µM [falling, partial curve]

SMILES: COc1cccc(C(=O)COC(=O)c2cc(-c3cccs3)nc3ccccc23)c1
- AC50 [1]: 39.8 µM [falling, single point]

SMILES: Cc1ccccc1OCC(=O)Nc1nnc(SCc2cc(=O)n3cc(Cl)ccc3n2)s1
- AC50 [1]: 2.51 µM [falling, full curve]

SMILES: Cc1ccc(-n2nc(C)c(C(=O)NCCCN3CCN(c4cccc(Cl)c4)CC3)c2-n2cccc2)cc1
- AC50 [1]: 10 µM [falling, partial curve]

SMILES: Cc1ccc(NC(=O)c2cccc(NC(=O)N3CCSc4ncccc43)c2)cc1F
- AC50 [1]: 3.98 µM [falling, partial curve]

SMILES: CCCN1C(=O)c2oc3cc(C)cc(C)c3c(=O)c2C1c1ccc(F)cc1 (stereo unspecified)
- AC50 [1]: 0.251 µM [rising, partial curve]

SMILES: COc1ccc(-c2cc(C(F)(F)F)nc(SCC(=O)Nc3ccc(O)cc3)n2)cc1OC
- AC50 [1]: 0.126 µM [rising, full curve]

SMILES: CCCNc1ncnc2c1c(-c1ccccc1)cn2-c1ccccc1
- AC50 [1]: 12.6 µM [falling, single point]

SMILES: C[C@@]12CCC(=O)C=C1CC[C@H]1[C@@H]2[C@@H](O)C[C@]2(C)[C@@H]1CC[C@@]2(O)C(=O)CO
- AC50 [1]: 15.8 nM [rising, full curve] [measured here: IkB-luc green channel]
